The list shows a part of the results. The main result of the screen is listed elsewhere. These columns were measured beside it and carry no call. Compounds called inactive in the main read-out are mostly missing here. Words in brackets tell the shape of the fitted curve; partial curves, single points and poor fits give uncertain potencies.

The results in this text go back to PubChem BioAssay AID2685 (National Center for Advancing Translational Sciences (NCATS), 2010).

A short description of the test: qHTS Assay for Lipid Storage Modulators in Drosophila S3 Cells.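 For cell number change: cells counted by Cell Tracker Red CMTPX staining in the red channel.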 Particulars: BODIPY lipid droplet fluorescence, 18-24 h; for cell number change: measured here: cell count max response, cells fed with added oleic acid. Put shortly:
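Drosophila S3 cells got compounds at several concentrations plus oleic acid (400 uM solution). Laser-scanning cytometry with 488 nm excitation read lipid droplets at 500-530 nm and cells at 575-640 nm. Percent activity was relative to 20 uM Triacsin C.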

Where [1] appears, read: measured here: lipid fluorescence (Fed channel) AC50, cells fed with added oleic acid.
Where [2] appears, read: measured here: cell number channel AC50, cells fed with added oleic acid.

In the case of `CC1CCCCN1C(=O)C1COc2ccccc2O1` (stereo not drawn), the cell number change stood at 16.7%. For the same compound, the concentration at half-maximal activity (AC50) under setting [1] is 2.59 µM [falling, full curve, poor fit].
For the compound `Cc1cc(/C=c2\sc3nc4ccccc4n3c2=O)c(C)n1-c1ccc(C(=O)O)cc1`, the cell number change was found to be 37.9%. Also, the AC50 under setting [1] was 0.00517 µM [falling, full curve, poor fit].
In the case of `c1cc2ccc3ccc(-n4cnnn4)c4ccc(c1)c2c34`, the cell number change stood at 44.1%. For the same compound, the AC50 under setting [2] is 16.4 µM [rising, single point]. For the same compound, the AC50 under setting [1] is 29.1 µM [rising, single point].
For `Cc1ccc(N2C(=O)N(CC(=O)Nc3cc(Cl)ccc3C)C(=O)C2C)cc1` (stereo not drawn), the cell number change was -49%. In addition, the half-maximal activity concentration (AC50) under setting [2] is 16.4 µM [falling, single point].
As for `N#Cc1c(NCCN)nc(-c2ccccc2)c2c1CCCC2`, the AC50 under setting [1] was 6.51 µM [rising, partial curve].
For `O=C(CN1CCN(C(=O)c2ccccc2)CC1)Nc1cc(S(=O)(=O)N2CCCC2)ccc1Cl`, the cell number change was -56.7%. Further, the AC50 under setting [2] is 16.4 µM [falling, partial curve, poor fit]. In addition, under setting [1], the AC50 was 13 µM [falling, partial curve].
As for `CC(C)(C)c1ccc(CCC2OCC(CN3CCOCC3)O2)cc1` (stereo not drawn), the cell number change is -35.9%. Further, the AC50 under setting [2] was 5.17 µM [falling, partial curve]. The AC50 under setting [1] is 7.31 µM [falling, partial curve].
`COc1cccc(Cn2nc3c4cc(F)ccc4n(Cc4ccc(F)cc4)cc-3c2=O)c1`: the cell number change was 50%. Moreover, the AC50 under setting [2] was 0.366 µM [rising, full curve, poor fit]. Also, the AC50 under setting [1] was 20.6 µM [rising, single point].
Turning to `CC(C)(C)NC(=O)C(c1ccc(O)cc1)N(C(=O)CCC(=O)Nc1nccs1)c1ccc(F)cc1` (stereo not drawn), the AC50 under setting [1] is 0.411 µM [rising, full curve, poor fit].
Take `O=C(COC(=O)Cc1ccc(F)cc1)NC1CCCC1`: the cell number change came to 22%.
Same read-out and setting: next, `COc1ccc(NC(=O)C2CCC(C)(C(=O)O)C2(C)C)cc1` (stereo not drawn): -0.809%.
In the case of `CCOc1ccc(NC(=S)NN(C)C(=S)Nc2ccc(OCC)cc2)cc1`, the cell number change worked out at 21.3%. In addition, the AC50 under setting [1] was 2.91 µM [rising, partial curve].
`CC(=O)OCCCN1C(=O)c2ccc(Br)cc2C1=O`: the cell number change is -6.66%. In addition, under setting [1], the AC50 was 20.6 µM [falling, single point].
Turning to `CCN(CC)CC(=O)Nc1c(Br)ccc2c1OCO2`, the cell number change stood at 12.6%. In addition, the AC50 under setting [1] is 4.11 µM [falling, full curve, poor fit].
Consider `Cc1cc(C)nc(SCC(=O)c2ccc(O)c(O)c2)n1`, for which the cell number change is -40.4%. Also, under setting [2], the AC50 was 29.1 µM [falling, single point].
For the compound `O=C(Cn1ncc2c3ccccc3n(Cc3ccccc3)c2c1=O)NCc1ccccn1`, the AC50 under setting [2] is 0.517 µM [rising, single point].
On to `COc1cc2cc(C(c3nnnn3C(C)(C)C)N3CCC(C)CC3)c(=O)[nH]c2cc1OC` (stereo not drawn), for which the cell number change is 29.6%.
Regarding `COC(=O)N/N=C\c1ccc(OC/C=C/c2ccccc2)cc1`, the cell number change stood at 20%. Under setting [1], the AC50 is 1.16 µM [rising, full curve, poor fit].
For the compound `COC(=O)c1ccc(Oc2nc(Nc3ccccc3)nc(N(C)C)n2)cc1`, the cell number change was -22.4%. Further, the AC50 under setting [1] was 1.46 µM [rising, partial curve].
Regarding `O=C(CCC1CCCN(C(=O)c2cccnc2)C1)NCc1ccccc1F` (stereo not drawn), the cell number change is -22.1%. The AC50 under setting [2] was 0.13 µM [falling, full curve, poor fit]. The half-maximal activity concentration (AC50) under setting [1] is 4.11 µM [falling, partial curve].
For the compound `O=C(CNc1ccc(F)cc1)N/N=C1\CCCc2ccccc21`, the half-maximal activity concentration (AC50) reads like this: under setting [2], 0.517 µM [rising, full curve]; under setting [1], 0.517 µM [rising, full curve].
In the case of `C=CCS/C(N)=N\N=C\c1cc(Br)cc([N+](=O)[O-])c1O`, the cell number change is -3.72%. Further, the AC50 under setting [1] is 0.00461 µM [falling, full curve, poor fit].
For `COc1ccc(CC(=O)OCC(=O)Nc2ncc(Cl)c(C)c2Cl)cc1`, the cell number change was -13.8%. Under setting [2], the AC50 is 7.31 µM [falling, single point]. Under setting [1], the half-maximal activity concentration (AC50) was 3.66 µM [rising, partial curve, poor fit].
As to `Cc1ccc(S(=O)(=O)N(C)CC(=O)NCCc2c[nH]c3ccccc23)cc1`, the cell number change was 35.9%.
Turning to `COc1ccc(C(CNC(=O)c2oc3cc(Br)ccc3c2C)N2CCCCC2)cc1` (stereo not drawn), the cell number change was -2.12%. Under setting [2], the AC50 was 1.46 µM [rising, partial curve, poor fit]. In addition, the AC50 under setting [1] was 6.51 µM [rising, partial curve, poor fit].
As to `COc1ccc(-c2csc3ncnc(NCCN4CCOCC4)c23)cc1`, the cell number change is -15.4%. Besides, under setting [1], the concentration at half-maximal activity (AC50) was 7.31 µM [falling, partial curve].
Consider `COc1ccc(/C=C2\Sc3ccc(C(=O)N4CCN(Cc5ccccc5)CC4)cc3N(C)C2=O)cc1OC`, for which the AC50 is 1.84 µM [falling, partial curve] under setting [2] and 5.8 µM [falling, partial curve] under setting [1].
With `COc1ccc(NC(=O)c2sc(SC)nc2N)cc1`, the cell number change is -65.7%. Moreover, the concentration at half-maximal activity (AC50) under setting [2] is 29.1 µM [falling, single point]. In addition, the AC50 under setting [1] is 29.1 µM [falling, single point].
Turning to `CC1CCc2c(C(=O)Nc3cccc(-c4nn[nH]n4)c3)csc2C1` (stereo not drawn), the cell number change is 33.6%. Further, under setting [2], the AC50 was 32.6 µM [rising, partial curve, poor fit].
With `CCC1SC2=NCCN2C1(O)c1ccc(Cl)cc1` (stereo not drawn), the cell number change was determined as 7.6%. In addition, the concentration at half-maximal activity (AC50) under setting [1] was 0.231 µM [falling, full curve].
As to `O=C1c2ccccc2C(=O)N1CC1c2ccccc2CCN1S(=O)(=O)c1ccccc1` (stereo not drawn), the cell number change was -24.4%.
Turning to `O=C(CSc1ccc2nnc(CCNC(=O)c3ccccc3)n2n1)Nc1ccc(F)cc1F`, the AC50 under setting [1] is 1.84 µM [falling, partial curve, poor fit].
Take `CCOC(=O)C1=C(COC(=O)COc2ccccc2OCC)NC(=O)NC1C` (stereo not drawn): the cell number change is -77%.
Turning to `COc1cc2c(cc1OC)CN(C1CCCN(Cc3cc(Cl)ccc3O)C1)CC2` (stereo not drawn), the cell number change was -6.04%. Moreover, the AC50 under setting [2] was 3.66 µM [falling, single point].
With `CC1CC(C)CN(C(=O)c2ccc(S(=O)(=O)N3CCCCC3)cc2)C1` (stereo not drawn), the cell number change was -2.89%. Besides, the AC50 under setting [1] was 8.2 µM [falling, partial curve, poor fit].
As to `COc1ccc(NC(=O)c2oc3ccccc3c2C)c(OC)c1`, the AC50 was 1.3 µM [rising, full curve] under setting [2] and 1.46 µM [rising, full curve] under setting [1].
`CCOC(=O)c1c(N/N=C/c2ccncc2)n[nH]c1C`: the cell number change was determined as 35.4%. For the same compound, under setting [2], the AC50 is 2.06 µM [rising, partial curve]. The AC50 under setting [1] is 2.31 µM [rising, partial curve, poor fit].
In the case of `O=C(CC1SC(=Nc2ccccc2)N(CCc2ccccn2)C1=O)Nc1ccc(F)cc1` (stereo not drawn), the cell number change is 13.5%. The AC50 under setting [1] was 29.1 µM [rising, single point].
As for `O=C(c1cc(Br)c(Br)s1)N1CCOCC1`, the cell number change was -3.97%. For the same compound, the AC50 under setting [1] was 0.58 µM [falling, single point].
Take `O=C(O)c1ccc2c(c1)C(=O)N(c1cccc3ccccc13)C2=O`: the cell number change was 40.5%. In addition, the AC50 under setting [2] was 32.6 µM [rising, single point].
As to `O=[N+]([O-])c1cc(S(=O)(=O)N2CCCC2)ccc1N/N=C/c1ccccn1`, the cell number change was determined as 2.01%. Besides, the AC50 under setting [1] was 29.1 µM [rising, single point].
On to `CC(C)c1ccccc1NC(=S)NCCCn1ccnc1`, for which, under setting [1], the AC50 is 0.58 µM [rising, single point].
On to `COc1ccc(NC(=O)c2oc3ccccc3c2NC(=O)C2CC2)cc1`, for which the cell number change was 16.5%. Further, the AC50 under setting [1] was 3.26 µM [falling, partial curve].
Turning to `C/C(=N\Nc1ccccc1)c1c(O)cc(C)oc1=O`, the cell number change amounted to 50.1%. Further, the AC50 under setting [2] is 1.84 µM [rising, partial curve].
Take `COc1ccc(CSc2ncnc3sccc23)cc1F`: the cell number change was found to be 2.23%.
Turning to `C=C1[C@@H](OC(C)=O)CC[C@]2(C)[C@@H]1C[C@@H]1C[C@H](OC(C)=O)C(C)=C([C@@H](OC(C)=O)[C@@H]2OC(C)=O)C1(C)C`, the cell number change was found to be 15%. Also, the AC50 under setting [1] is 4.11 µM [rising, full curve, poor fit].
For the compound `O=S(=O)(Nc1ccc(C(F)(F)F)cc1)c1cnc[nH]1`, the cell number change is -5.81%.
Regarding `ClCc1nc2ccccc2c2ccccc12`, the cell number change amounted to 21.7%.
Regarding `COc1cccc(-c2cc(C(=O)N3CCN(S(=O)(=O)c4ccccc4)CC3)[nH]n2)c1`, the cell number change is -8.36%. The AC50 under setting [1] was 3.66 µM [falling, single point].
Consider `Cc1cc(C)n2nc(C(=O)OCC(=O)Nc3cc(Cl)ccc3C)nc2n1`, for which the cell number change is 1.93%. For the same compound, the AC50 under setting [1] is 16.4 µM [rising, partial curve, poor fit].
As for `COc1ccc(Cl)cc1NC(=O)COC(=O)/C=C/c1c(C)nn(C2CCS(=O)(=O)C2)c1Cl` (stereo not drawn), the cell number change is -27.3%.
As for `CC(=O)c1ccc(N(C)C)c2c(N(C)C)cccc12`, the cell number change came to 4.59%.
As to `CCc1ccccc1NC(=O)c1sc2nc(C)cc(C)c2c1N`, the cell number change stood at 1.35%. Further, the AC50 under setting [1] was 29.1 µM [falling, single point].
With `NS(=O)(=O)c1ccc(CCNC(=O)CN2CCCCC2)cc1`, the cell number change is -5.65%.
As to `Brc1ccc(-c2nn3c(-c4ccccn4)nnc3s2)o1`, the AC50 under setting [1] was 0.58 µM [rising, single point].
Take `C=CCNC(=S)N1CCC(C(=O)c2ccc(Cl)cc2)CC1`: the cell number change is -16.9%.
For `O=C(CCc1nnc(C2CCCCC2)o1)N1CCN(Cc2ccccc2)CC1`, the cell number change is 11.5%. Moreover, the half-maximal activity concentration (AC50) under setting [2] is 3.66 µM [falling, single point].
For the compound `Cc1ccccc1OCCNC(=O)/C=C/c1ccc([N+](=O)[O-])cc1`, the cell number change was 13.8%. The AC50 under setting [1] is 29.1 µM [rising, single point].
For the compound `Cc1n[nH]c(C)c1CN(C)C(=O)C1CCC(=O)N(CC2CCCCC2)C1` (stereo not drawn), the cell number change stood at 12.4%. Under setting [1], the concentration at half-maximal activity (AC50) is 29.1 µM [rising, partial curve, poor fit].
As for `CC1CCCCC1NC(=O)C1CCN(C(=O)c2sccc2-n2cccc2)CC1` (stereo not drawn), the cell number change was 23.3%. Further, the AC50 under setting [1] is 23.1 µM [rising, single point].
In the case of `COc1cc(/C=C/c2ccc3cccc(OC)c3n2)c(OC(C)=O)c([N+](=O)[O-])c1`, the cell number change is -79.7%. Also, the concentration at half-maximal activity (AC50) under setting [2] is 20.6 µM [falling, single point]. The AC50 under setting [1] is 3.66 µM [falling, full curve, poor fit].

The AC50 is the midpoint of the concentration-response curve, whichever way the signal moves. High values mean activity only at high concentration, low ones activity at low concentration.
